Counter-ions that a name gives are not always drawn. The list shows a part of the results. The calls rarely recur for the same compound in another form.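 Kinases were expressed as nanoluciferase fusions in K562 cells and luminescence was read every 4 h between 2 and 18 h as percent of control, DMSO set to 100% and a positive control to 0%. A time point counts as decreased when the signal drops significantly (2 sigma). The hit call is the authors' own, does not follow from the count of time points alone, and its rule is not shown.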
Tests used:
Assay in all cases: kinase-Nluc reporter destabilization hit call (1 = scored as downregulated) (binary); higher = compound decreases kinase abundance
Settings in all cases: K562; 2-18 h
ABL1 = ABL1 (UniProt P00519)
AKT1 = AKT1 (UniProt P31749)
ALK = ALK (UniProt Q9UM73)
ARAF = ARAF (UniProt P10398)
AURKA = AURKA (UniProt O14965)
AURKB = AURKB (UniProt Q96GD4)
AURKC = AURKC (UniProt Q9UQB9)
BLK = BLK (UniProt P51451)
BMX = BMX (UniProt P51813)
BRAF = BRAF (UniProt P15056)

By UniProt entry, the sequences of proteins in these tests, tags left out. Where a name states a change or a piece, a line headed by the entry shows the natural chain unless it says otherwise.
UniProt P00519, whole entry: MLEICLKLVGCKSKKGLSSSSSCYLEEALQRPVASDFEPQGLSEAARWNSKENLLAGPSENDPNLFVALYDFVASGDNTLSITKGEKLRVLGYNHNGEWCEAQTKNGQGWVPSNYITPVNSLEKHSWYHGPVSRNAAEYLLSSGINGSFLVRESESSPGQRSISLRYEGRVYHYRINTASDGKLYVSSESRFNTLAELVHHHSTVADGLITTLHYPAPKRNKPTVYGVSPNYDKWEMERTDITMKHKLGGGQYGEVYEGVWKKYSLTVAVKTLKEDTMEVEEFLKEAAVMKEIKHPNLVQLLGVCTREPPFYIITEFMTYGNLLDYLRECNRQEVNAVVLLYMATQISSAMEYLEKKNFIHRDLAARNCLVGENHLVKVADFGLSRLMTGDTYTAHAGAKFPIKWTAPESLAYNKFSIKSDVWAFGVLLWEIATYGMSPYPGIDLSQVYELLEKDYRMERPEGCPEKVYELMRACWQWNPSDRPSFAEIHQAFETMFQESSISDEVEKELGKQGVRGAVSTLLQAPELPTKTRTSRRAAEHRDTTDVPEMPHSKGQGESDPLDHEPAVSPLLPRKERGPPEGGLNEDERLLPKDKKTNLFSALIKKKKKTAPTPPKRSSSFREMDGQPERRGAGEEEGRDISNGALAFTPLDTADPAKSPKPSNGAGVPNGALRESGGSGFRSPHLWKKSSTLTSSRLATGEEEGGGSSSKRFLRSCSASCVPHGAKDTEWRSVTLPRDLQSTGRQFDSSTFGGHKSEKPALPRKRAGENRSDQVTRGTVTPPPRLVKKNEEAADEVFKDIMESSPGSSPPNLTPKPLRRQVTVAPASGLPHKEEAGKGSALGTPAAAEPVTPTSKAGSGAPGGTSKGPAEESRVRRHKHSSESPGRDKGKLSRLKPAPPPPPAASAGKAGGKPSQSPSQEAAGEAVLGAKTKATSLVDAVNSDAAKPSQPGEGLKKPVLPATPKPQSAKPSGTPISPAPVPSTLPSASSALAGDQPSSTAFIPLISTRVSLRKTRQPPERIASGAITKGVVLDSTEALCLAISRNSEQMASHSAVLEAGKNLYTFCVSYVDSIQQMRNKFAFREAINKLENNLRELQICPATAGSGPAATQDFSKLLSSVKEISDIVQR
UniProt P31749: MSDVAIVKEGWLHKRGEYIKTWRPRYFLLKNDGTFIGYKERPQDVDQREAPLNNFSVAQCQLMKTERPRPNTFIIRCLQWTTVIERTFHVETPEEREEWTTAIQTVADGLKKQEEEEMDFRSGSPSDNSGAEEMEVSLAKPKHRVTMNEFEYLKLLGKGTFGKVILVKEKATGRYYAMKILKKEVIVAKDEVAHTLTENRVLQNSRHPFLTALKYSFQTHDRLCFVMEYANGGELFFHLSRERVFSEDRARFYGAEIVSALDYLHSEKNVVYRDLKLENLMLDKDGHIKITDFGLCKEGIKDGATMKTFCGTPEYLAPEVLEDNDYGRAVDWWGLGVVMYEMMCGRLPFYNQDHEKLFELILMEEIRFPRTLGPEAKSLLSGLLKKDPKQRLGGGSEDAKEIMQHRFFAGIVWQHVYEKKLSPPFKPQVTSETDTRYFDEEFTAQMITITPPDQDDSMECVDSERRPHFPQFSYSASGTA
UniProt P10398: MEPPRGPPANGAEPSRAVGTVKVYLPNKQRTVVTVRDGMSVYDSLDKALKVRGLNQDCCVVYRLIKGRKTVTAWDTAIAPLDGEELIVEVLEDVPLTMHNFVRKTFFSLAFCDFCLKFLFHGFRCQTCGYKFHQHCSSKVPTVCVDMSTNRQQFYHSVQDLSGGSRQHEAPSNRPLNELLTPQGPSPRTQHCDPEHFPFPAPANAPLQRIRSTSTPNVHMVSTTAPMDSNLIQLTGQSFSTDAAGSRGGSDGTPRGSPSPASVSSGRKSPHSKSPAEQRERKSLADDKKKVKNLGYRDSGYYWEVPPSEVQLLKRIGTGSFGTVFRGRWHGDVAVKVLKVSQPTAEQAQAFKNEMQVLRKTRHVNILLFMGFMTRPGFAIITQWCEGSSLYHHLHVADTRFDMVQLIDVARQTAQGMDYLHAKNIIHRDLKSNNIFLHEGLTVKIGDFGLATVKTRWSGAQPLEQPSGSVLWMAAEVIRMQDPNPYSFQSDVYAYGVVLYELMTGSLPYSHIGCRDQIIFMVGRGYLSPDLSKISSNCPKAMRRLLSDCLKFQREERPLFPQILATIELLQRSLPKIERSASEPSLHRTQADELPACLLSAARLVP
UniProt O14965: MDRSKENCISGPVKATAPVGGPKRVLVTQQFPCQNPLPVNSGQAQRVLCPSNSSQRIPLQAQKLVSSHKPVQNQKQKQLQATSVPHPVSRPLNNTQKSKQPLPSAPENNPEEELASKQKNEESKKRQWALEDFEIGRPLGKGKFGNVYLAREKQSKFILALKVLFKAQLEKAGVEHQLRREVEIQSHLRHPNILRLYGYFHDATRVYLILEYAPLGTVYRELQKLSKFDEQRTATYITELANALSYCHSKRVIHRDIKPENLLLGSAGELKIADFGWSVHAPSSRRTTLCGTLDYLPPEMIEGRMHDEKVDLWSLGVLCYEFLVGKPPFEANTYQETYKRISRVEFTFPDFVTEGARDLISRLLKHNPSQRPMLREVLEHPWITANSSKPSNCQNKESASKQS
UniProt Q96GD4, whole entry: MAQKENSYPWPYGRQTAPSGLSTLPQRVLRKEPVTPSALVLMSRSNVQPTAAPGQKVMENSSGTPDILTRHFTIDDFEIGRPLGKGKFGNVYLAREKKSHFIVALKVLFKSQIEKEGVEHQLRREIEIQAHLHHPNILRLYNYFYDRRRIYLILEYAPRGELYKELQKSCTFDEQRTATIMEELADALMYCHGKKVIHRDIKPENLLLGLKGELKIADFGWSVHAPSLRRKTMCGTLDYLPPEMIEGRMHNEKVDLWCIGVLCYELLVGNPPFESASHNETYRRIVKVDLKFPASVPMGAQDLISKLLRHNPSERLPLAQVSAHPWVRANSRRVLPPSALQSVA
UniProt Q9UQB9: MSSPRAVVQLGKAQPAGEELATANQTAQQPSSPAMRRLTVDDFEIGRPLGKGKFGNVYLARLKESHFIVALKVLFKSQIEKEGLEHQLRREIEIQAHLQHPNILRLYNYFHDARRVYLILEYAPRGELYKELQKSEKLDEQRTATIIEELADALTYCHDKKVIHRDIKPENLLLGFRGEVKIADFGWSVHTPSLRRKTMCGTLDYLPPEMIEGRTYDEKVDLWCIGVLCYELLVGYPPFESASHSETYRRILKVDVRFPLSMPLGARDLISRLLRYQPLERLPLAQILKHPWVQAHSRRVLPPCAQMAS
UniProt P51451: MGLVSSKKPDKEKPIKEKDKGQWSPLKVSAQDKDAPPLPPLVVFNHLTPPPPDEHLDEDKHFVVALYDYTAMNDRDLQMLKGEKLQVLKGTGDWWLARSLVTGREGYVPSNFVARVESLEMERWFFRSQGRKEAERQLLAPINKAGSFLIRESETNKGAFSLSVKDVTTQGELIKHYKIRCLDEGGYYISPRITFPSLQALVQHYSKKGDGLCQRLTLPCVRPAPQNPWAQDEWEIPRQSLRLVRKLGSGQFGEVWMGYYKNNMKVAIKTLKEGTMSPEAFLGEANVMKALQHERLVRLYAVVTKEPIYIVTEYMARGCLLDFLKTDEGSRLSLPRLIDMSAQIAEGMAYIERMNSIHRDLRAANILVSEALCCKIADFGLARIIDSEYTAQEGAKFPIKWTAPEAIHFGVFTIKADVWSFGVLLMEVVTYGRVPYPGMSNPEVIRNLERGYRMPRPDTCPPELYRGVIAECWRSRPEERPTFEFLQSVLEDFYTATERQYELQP
UniProt P51813: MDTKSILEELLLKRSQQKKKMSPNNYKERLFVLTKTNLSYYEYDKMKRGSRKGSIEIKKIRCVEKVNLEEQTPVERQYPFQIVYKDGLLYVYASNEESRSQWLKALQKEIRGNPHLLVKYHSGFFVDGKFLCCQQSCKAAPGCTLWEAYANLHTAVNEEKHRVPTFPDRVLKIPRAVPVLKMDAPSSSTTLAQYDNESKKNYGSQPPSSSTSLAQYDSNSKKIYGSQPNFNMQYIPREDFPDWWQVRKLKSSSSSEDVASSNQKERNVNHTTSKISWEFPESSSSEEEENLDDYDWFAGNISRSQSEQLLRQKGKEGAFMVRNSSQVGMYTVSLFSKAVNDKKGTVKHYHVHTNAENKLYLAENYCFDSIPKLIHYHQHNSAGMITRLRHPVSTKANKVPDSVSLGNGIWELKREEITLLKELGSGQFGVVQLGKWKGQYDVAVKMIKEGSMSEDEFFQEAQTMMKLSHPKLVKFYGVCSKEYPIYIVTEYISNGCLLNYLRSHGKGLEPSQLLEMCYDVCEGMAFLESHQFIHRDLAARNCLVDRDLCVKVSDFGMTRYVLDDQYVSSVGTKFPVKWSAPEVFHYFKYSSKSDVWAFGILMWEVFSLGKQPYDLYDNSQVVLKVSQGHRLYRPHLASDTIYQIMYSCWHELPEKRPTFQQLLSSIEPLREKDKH
UniProt P15056, whole entry, looked up: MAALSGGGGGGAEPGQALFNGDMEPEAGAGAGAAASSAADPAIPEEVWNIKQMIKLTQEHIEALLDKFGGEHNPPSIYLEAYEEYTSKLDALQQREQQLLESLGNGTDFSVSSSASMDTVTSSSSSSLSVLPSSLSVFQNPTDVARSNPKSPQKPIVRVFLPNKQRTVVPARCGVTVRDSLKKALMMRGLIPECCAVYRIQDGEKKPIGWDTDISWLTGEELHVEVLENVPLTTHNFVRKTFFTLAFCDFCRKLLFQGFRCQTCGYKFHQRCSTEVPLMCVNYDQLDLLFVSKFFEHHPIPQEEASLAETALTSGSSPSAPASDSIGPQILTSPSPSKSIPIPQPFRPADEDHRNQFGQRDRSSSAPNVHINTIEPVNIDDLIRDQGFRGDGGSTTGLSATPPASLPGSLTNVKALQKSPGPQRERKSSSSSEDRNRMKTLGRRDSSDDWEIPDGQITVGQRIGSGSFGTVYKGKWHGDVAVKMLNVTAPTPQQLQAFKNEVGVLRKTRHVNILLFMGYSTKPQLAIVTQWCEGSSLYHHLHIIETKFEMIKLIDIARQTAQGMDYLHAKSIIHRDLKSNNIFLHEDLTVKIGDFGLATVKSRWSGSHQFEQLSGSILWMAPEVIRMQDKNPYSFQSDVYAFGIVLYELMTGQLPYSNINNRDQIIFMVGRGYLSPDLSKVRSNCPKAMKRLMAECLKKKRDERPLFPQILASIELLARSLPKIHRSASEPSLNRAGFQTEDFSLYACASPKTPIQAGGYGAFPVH

Measured: kinase-Nluc reporter destabilization hit call

NC(=O)N1CCC(CC(=O)N2CCC([C@H]3c4ncc(Br)cc4CCc4cc(Cl)cc(Br)c43)CC2)CC1 [Lonafarnib] (2.5 µM)
inactive: ABL1 = 0 | AKT1 = 0 | ALK 0 | ARAF 0 | AURKA 0 | AURKB 0 | AURKC 0 | BLK 0 | BMX 0 | BRAF 0

Nc1nc(N)c2nc(-c3cccc(O)c3)cnc2n1 (10 µM)
inactive: ABL1 = 0 | AKT1 = 0 | ALK 0 | ARAF 0 | AURKA 0 | AURKB 0 | AURKC 0 | BLK 0 | BMX 0 | BRAF 0

C[C@@H]1CN(c2cc(-c3n[nH]c4ccc(OC5(C)CC5)cc34)ncn2)C[C@H](C)O1 (10 µM)
inactive: ABL1 = 0 | AKT1 = 0 | ALK 0 | ARAF 0 | AURKA 0 | AURKB 0 | AURKC 0 | BLK 0 | BMX 0 | BRAF 0

O=C(Nc1cccc(Nc2ncc(Br)c(NCCc3cnc[nH]3)n2)c1)N1CCCC1 (10 µM)
inactive: ABL1 = 0 | AKT1 = 0 | ALK 0 | ARAF 0 | AURKA 0 | AURKB 0 | AURKC 0 | BLK 0 | BMX 0 | BRAF 0

Cc1cnc(NC2CCOCC2)nc1-n1cnc(C(=O)N[C@H](CN)c2cc(F)cc(Cl)c2)c1 (10 µM)
inactive: ABL1 = 0 | AKT1 = 0 | ALK 0 | ARAF 0 | AURKA 0 | AURKB 0 | AURKC 0 | BLK 0 | BMX 0 | BRAF 0

COc1ccc(/C=C/C(=O)C2(C(=O)/C=C/c3ccc(OC)c(OC)c3)CCCCC2)cc1OC (2.5 µM)
inactive: ABL1 = 0 | AKT1 = 0 | ALK 0 | ARAF 0 | AURKA 0 | AURKB 0 | AURKC 0 | BLK 0 | BMX 0 | BRAF 0

O=C(CNc1cccc(Cl)c1)NC1CCCN(c2ncnc3[nH]ccc23)C1 (stereo not given) (10 µM)
inactive: ABL1 = 0 | AKT1 = 0 | ALK 0 | ARAF 0 | AURKA 0 | AURKB 0 | AURKC 0 | BLK 0 | BMX 0 | BRAF 0

COc1ccc(-c2coc3cc(O)ccc3c2=O)cc1 [Formononetin] (10 µM)
inactive: ABL1 = 0 | AKT1 = 0 | ALK 0 | ARAF 0 | AURKA 0 | AURKB 0 | AURKC 0 | BLK 0 | BMX 0 | BRAF 0

C=CC(=O)Nc1cc(-n2c(=O)ccc3cnc4ccc(-c5ccc(NS(C)(=O)=O)cc5)cc4c32)ccc1C (10 µM)
inactive: ABL1 = 0 | AKT1 = 0 | ALK 0 | ARAF 0 | AURKA 0 | AURKB 0 | AURKC 0 | BLK 0 | BMX 0 | BRAF 0

CC(C)N1CCN(c2ccc(Nc3ncc4cc5n(c4n3)C3(CCCCC3)CNC5=O)nc2)CC1 [Lerociclib (dihydrochloride)] (2 µM)
inactive: ABL1 = 0 | AKT1 = 0 | ALK 0 | ARAF 0 | AURKA 0 | AURKB 0 | AURKC 0 | BLK 0 | BMX 0 | BRAF 0

O=C(N[C@@H](C1CC1)C(F)(F)F)c1cc(-c2cnn3cc(-c4ccc(F)cc4)cnc23)cs1 (10 µM)
inactive: ABL1 = 0 | AKT1 = 0 | ALK 0 | ARAF 0 | AURKA 0 | AURKB 0 | AURKC 0 | BLK 0 | BMX 0 | BRAF 0

N#CC(c1ccnc(OCc2ccc(CN3CCOCC3)cc2)n1)c1nc2ccccc2s1 (stereo not given) [Bentamapimod] (2.5 µM)
inactive: ABL1 = 0 | AKT1 = 0 | ALK 0 | ARAF 0 | AURKA 0 | AURKB 0 | AURKC 0 | BLK 0 | BMX 0 | BRAF 0

Some of these compounds in order of heavy-atom count, rising:
O=C(N[C@@H](C1CC1)C(F)(F)F)c1cc(-c2cnn3cc(-c4ccc(F)cc4)cnc23)cs1 (10 µM)
inactive: ABL1 = 0 | AKT1 = 0 | ALK 0 | ARAF 0 | AURKA 0 | AURKB 0 | AURKC 0 | BLK 0 | BMX 0 | BRAF 0

N#CC(c1ccnc(OCc2ccc(CN3CCOCC3)cc2)n1)c1nc2ccccc2s1 (stereo not given) [Bentamapimod] (2.5 µM)
inactive: ABL1 = 0 | AKT1 = 0 | ALK 0 | ARAF 0 | AURKA 0 | AURKB 0 | AURKC 0 | BLK 0 | BMX 0 | BRAF 0

CC(C)N1CCN(c2ccc(Nc3ncc4cc5n(c4n3)C3(CCCCC3)CNC5=O)nc2)CC1 [Lerociclib (dihydrochloride)] (2 µM)
inactive: ABL1 = 0 | AKT1 = 0 | ALK 0 | ARAF 0 | AURKA 0 | AURKB 0 | AURKC 0 | BLK 0 | BMX 0 | BRAF 0

Next entries follow:

C=CC(=O)Nc1cccc(-c2cccc3cnc(Nc4ccc(N5CCN(CCO)CC5)c(F)c4F)nc23)c1 [Olafertinib] (2.5 µM)
inactive: ABL1 = 0 | AKT1 = 0 | ALK 0 | ARAF 0 | AURKA 0 | AURKB 0 | AURKC 0 | BLK 0 | BMX 0 | BRAF 0

NC(=S)n1[nH]c(-c2ccc([N+](=O)[O-])cc2)c(N=Nc2cccc(Cl)c2)c1=O (2.5 µM)
inactive: ABL1 = 0 | AKT1 = 0 | ALK 0 | ARAF 0 | AURKA 0 | AURKB 0 | AURKC 0 | BLK 0 | BMX 0 | BRAF 0

O=C(NC1CCOCC1)c1ccc(-c2cc(-c3c[nH]nc3-c3ccccn3)ccn2)cc1 (10 µM)
inactive: ABL1 = 0 | AKT1 = 0 | ALK 0 | ARAF 0 | AURKA 0 | AURKB 0 | AURKC 0 | BLK 0 | BMX 0 | BRAF 0

— the supplement of paper PMC12823440, “Inhibitors supercharge kinase turnover through native proteolytic circuits” (Nature, 2025)
